The source holds more than one record for some entries. They are shown here; other results are not. An entry can have further records. Values that stand side by side do not match, cause unknown; dose, time, organism, isomer or construct need not be as stated for each record.
Target: hAC1 (Homo sapiens, UniProt Q08828)
Assay: Cyclic AMP accumulation (HTRF) in HEK cells stably expressing AC1, stimulated with A23187
Conditions: AC8 IC50/AC1 IC50; without AC8 IC50, estimate based on IC50 ≥30 μM

By UniProt entry, the sequences of proteins in these tests, tags left out.
UniProt Q08828, whole entry: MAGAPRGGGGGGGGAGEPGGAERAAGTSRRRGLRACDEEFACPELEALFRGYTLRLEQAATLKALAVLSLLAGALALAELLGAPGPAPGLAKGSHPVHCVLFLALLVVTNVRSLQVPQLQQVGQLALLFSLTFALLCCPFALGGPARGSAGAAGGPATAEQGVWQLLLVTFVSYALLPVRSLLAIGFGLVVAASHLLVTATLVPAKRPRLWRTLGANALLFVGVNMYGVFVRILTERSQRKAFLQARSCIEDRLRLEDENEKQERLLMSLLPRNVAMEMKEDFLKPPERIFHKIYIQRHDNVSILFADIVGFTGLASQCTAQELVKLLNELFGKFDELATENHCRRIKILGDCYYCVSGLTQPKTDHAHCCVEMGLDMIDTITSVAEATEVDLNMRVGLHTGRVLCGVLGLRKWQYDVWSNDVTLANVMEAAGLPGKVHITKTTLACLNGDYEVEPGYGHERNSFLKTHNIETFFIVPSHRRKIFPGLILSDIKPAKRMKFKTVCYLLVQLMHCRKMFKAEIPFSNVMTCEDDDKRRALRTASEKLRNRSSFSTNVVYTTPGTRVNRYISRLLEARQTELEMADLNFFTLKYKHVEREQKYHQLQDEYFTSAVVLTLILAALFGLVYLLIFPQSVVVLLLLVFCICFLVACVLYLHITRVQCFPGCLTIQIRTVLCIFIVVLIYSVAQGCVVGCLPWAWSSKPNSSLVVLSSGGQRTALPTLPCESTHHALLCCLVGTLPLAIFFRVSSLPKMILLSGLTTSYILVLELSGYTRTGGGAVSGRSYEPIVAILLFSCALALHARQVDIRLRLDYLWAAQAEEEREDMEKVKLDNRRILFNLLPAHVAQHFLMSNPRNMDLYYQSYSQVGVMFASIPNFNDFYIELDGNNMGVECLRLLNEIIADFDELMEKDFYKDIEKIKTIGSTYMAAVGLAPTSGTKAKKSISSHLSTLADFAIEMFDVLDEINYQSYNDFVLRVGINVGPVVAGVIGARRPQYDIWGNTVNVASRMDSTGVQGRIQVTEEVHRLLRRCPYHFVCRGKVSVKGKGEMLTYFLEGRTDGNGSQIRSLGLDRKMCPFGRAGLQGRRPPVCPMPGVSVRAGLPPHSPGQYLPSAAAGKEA

CCc1cc(=O)[nH]c(-n2nc(C)cc2NC(=O)c2ccccc2F)n1
Selectivity AC1 vs AC8: at least 60 fold and >60-fold

— patent US11667623B2, “Scaffold of adenylyl cyclase inhibitors for chronic pain and opioid dependence” (Purdue Research Foundation, priority 2017, dated 2023)
